Test results: PubChem BioAssay AID1671190 (National Center for Advancing Translational Sciences (NCATS), 2021)
“And” between values parts separate entries of the source, which are not always exact repeats. Equal values may be shown once. The whole screen tested about 580,000 compounds, of which about 6,100 (1.1%) were called active. Inconclusive results, whose numbers are uncertain, are shown with a selection of clear calls. Calls follow the shape of the dose curve; as a rule, active = well fitted inhibition curve with a large enough effect; inconclusive = small, poorly fitted or top-dose-only effect, or another doubt; inactive = no such curve, though single readings can be large or run the other way. A potency beside an inconclusive call is a rough fit, not a confirmed value.
% is scaled to controls: 0 for no effect and ±100 for the full control effect; potency is read from the fitted curve at half-maximal effect.

The chains behind the UniProt entries cited, without tags or fusion partners.
UniProt P18054, whole entry, looked up: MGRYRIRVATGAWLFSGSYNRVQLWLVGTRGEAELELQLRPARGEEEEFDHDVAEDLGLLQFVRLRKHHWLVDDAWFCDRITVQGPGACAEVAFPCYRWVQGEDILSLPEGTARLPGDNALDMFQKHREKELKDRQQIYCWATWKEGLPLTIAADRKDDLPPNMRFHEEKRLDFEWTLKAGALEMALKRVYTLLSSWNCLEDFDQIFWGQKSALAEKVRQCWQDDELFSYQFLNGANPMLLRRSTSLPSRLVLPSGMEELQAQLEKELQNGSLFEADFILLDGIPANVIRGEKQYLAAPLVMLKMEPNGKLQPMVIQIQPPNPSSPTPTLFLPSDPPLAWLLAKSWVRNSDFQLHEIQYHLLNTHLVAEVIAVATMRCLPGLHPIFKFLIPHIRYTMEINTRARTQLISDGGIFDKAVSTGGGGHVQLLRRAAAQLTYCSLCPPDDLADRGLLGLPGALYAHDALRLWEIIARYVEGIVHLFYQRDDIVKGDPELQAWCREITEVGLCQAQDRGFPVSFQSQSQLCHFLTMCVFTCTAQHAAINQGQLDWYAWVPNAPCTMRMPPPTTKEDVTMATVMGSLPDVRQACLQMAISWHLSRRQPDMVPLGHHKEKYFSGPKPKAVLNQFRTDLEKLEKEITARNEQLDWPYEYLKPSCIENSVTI

The molecules below were run against Polyunsaturated fatty acid lipoxygenase ALOX12 (Homo sapiens) (UniProt P18054) (assay: Primary qHTS assay for inhibitors of human arachidonate 12S-lipoxygenase (ALOX12): Round 2). Details: purified 12hLO, xylenol orange hydroperoxide absorbance; activity change, negative = inhibition: at 108 µM (top of the series) unless noted.
In short: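 Hydroperoxide product was detected by ferrous iron/xylenol orange as the 573 to 405 nm absorbance ratio. Arachidonic acid at 40 uM (final) was turned over for 30 min at room temperature by 150 nM human 12hLO, pH 7.0 Hepes buffer, after 15 min compound preincubation.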
In the case of `CCc1c(C(=O)c2ccc[nH]2)oc2ccc(F)cc12`, the Potency was inconclusive: 35.5 µM [inhibitor, partial curve, poor fit]. With `CCOC(=O)c1c(C)[nH]c(C(=O)/C(C#N)=C/c2ccc(OC)c(OC)c2)c1C` the “activity change, negative = inhibition” value was inactive: -12%. In the case of `O=C(Cc1cccc2ccccc12)N(Cc1cccc2[nH]ccc12)C1CC1`, the “activity change, negative = inhibition” value was inactive: 1.58%. For `Cc1ccc(OCC(O)Cn2nc(-c3ccc(F)cc3)oc2=O)cc1` (stereo unspecified), the “activity change, negative = inhibition” value was inactive: -0.204%. `BrC(=C\c1ccccc1)/C=N/N1CCN(c2ccccc2)CC1` was tested, and the Potency was inconclusive: 44.7 µM [inhibitor, partial curve, poor fit]. With `CCN1CC2=C(OC(N)=C(C#N)C2c2cccs2)/C(=C/c2cccs2)C1` (stereo unspecified) the Potency was inconclusive: 31.6 µM [inhibitor, single point]. For `COCCn1c(=O)c(-c2ccc(OC)cc2)nc2cnc(N3CCNCC3)nc21`, the Potency was inconclusive: 112 µM [inhibitor, single point]. In the case of `COc1ccc(C(=O)NCCc2noc(C3CC3)n2)c(OC)n1`, the “activity change, negative = inhibition” value was inactive: 6.43%. For `O=C(CSc1nc2ccccc2[nH]1)c1cccs1`, the Potency was inconclusive: 50.1 µM [inhibitor, partial curve, poor fit]. With `CC(=O)Nc1c(C)nn(-c2ccccc2)c1N1CCC(C(=O)Nc2ccc(C)cc2Cl)CC1` the Potency was inconclusive: 89.1 µM [inhibitor, partial curve, poor fit]. With `COC(=O)C1(C(=O)OC)Cc2ccccc2N(S(=O)(=O)c2ccc(C)cc2)C1CC(C)=O` (stereo unspecified) the Potency was inconclusive: 5.01 µM [inhibitor, full curve, poor fit]. In the case of `O=c1[nH]c(=S)[nH]c2c1CN(Cc1ccc(F)cc1)CC2`, the Potency was inconclusive: 89.1 µM [inhibitor, partial curve, poor fit]. For `O=C(O)CS(=O)(=O)Cc1cccc(Br)c1`, the Potency was inconclusive: 44.7 µM [inhibitor, partial curve, poor fit]. With `CC(O)[C@H](NC(=O)C1CCN(C(=O)[C@H](Cc2ccccc2)NC(=O)OC(C)(C)C)CC1)C(=O)O` (stereo partly specified) the Potency was inconclusive: 44.7 µM [inhibitor, partial curve, poor fit]. For `N#Cc1cccc(NC(=O)COC(=O)c2ccc[n+]([O-])c2)c1`, the Potency was inconclusive: 31.6 µM [inhibitor, partial curve, poor fit]. `Cc1c(O)ccc2c(CN(C)CCOc3ccccc3F)cc(=O)oc12` was tested, and the “activity change, negative = inhibition” value was inactive: -27.1%. In the case of `O=C(Cc1csc(NC(=O)c2ccccc2)n1)NO`, the “activity change, negative = inhibition” value was inactive: -4.91%. For `CCCc1nc2nc(C)c(NS(=O)(=O)c3ccc(C)c(C)c3)c(=O)n2[nH]1`, the Potency was inconclusive: 50.1 µM [inhibitor, partial curve, poor fit]. With `C1CCC(C(CC2CCCCN2)C2CCCCC2)CC1` (stereo unspecified) the Potency was inconclusive: 30.6 µM [inhibitor, partial curve, poor fit] and inconclusive: 70.8 µM [inhibitor, partial curve, poor fit] and inconclusive: 50.1 µM [inhibitor, single point]. `FC(F)(F)Sc1ccc(NC(=S)NCc2ccccc2)cc1` was tested, and the Potency was active: 39.8 µM. `NC1=NC(c2c[nH]c3ccccc23)n2c(nc3ccccc32)N1` (stereo unspecified) was tested, and the “activity change, negative = inhibition” value was inactive: 6.25%. For `CCCCn1c(N)c(N(CC(C)C)C(=O)c2cc(Br)c(Br)s2)c(=O)[nH]c1=O`, the “activity change, negative = inhibition” value was inactive: 0%. In the case of `NS(=O)(=O)c1ccc(NC(=O)CCN(Cc2cccs2)C2CC2)cc1`, the “activity change, negative = inhibition” value was inactive: 16.9%. `COc1ccc(N(Cc2cccs2)C(=O)Cn2nnc(-c3cccc(OC)c3)n2)cc1` was tested, and the Potency was inconclusive: 0.447 µM [inhibitor, full curve, poor fit]. In the case of `C[C@H](CO)N1C[C@H](C)[C@@H](CN(C)Cc2ccc(Cl)c(Cl)c2)OCCCC[C@H](C)Oc2ccc(NC(=O)CCC(F)(F)F)cc2C1=O`, the Potency was inconclusive: 50.1 µM [inhibitor, partial curve, poor fit]. With `Nc1c(S(=O)(=O)c2ccccc2)c2nc3ccccc3nc2n1/N=C/c1cccc(O)c1` the “activity change, negative = inhibition” value was inactive: 63%. With `COCCOC1CCN(C(=O)c2cc(C)n(CCOC)c2C)CC1` the “activity change, negative = inhibition” value was inactive: 92.5%. With `CCC(C#CCN1CCCC1)(CC)OCCC#N` the Potency was inconclusive: 141 µM [inhibitor, single point]. With `N#C/C(=C/c1ccccc1OCc1ccccc1C#N)c1ccc(Cl)cc1` the “activity change, negative = inhibition” value was inactive: 11.7%. `COCCNC(=O)[C@H](CSCc1ccccc1)N1Cc2ccccc2C1=O` was tested, and the “activity change, negative = inhibition” value was inactive: 0%. In the case of `CCN(CC)S(=O)(=O)c1cc(NC(=O)c2n[nH]c3ccccc23)ccc1C`, the Potency was inconclusive: 3.98 µM [inhibitor, full curve, poor fit]. For `O=C1/C(=C\c2ccccc2)CCc2c1[nH]c1ccccc21`, the Potency was inconclusive: 44.7 µM [inhibitor, partial curve, poor fit]. In the case of `C=C(C)COc1ccc2c(=O)c(Oc3ccc(C(=O)OCCC)cc3)c(C)oc2c1`, the “activity change, negative = inhibition” value was inactive: -10.4%. For `COCCN(C(=O)c1ccccc1Oc1ccccc1)c1c(N)n(CC(C)C)c(=O)[nH]c1=O`, the Potency was inconclusive: 141 µM [inhibitor, single point]. With `c1ccc2sc(NC3=NCN(C4CCCCCC4)CN3)nc2c1` the “activity change, negative = inhibition” value was inactive: 1.18%. With `Clc1ccc(OCCCN2CCCCC2)c(Br)c1` the Potency was inconclusive: 5.62 µM [inhibitor, full curve]. In the case of `O=C(NC1CC(=O)N(c2cccc(F)c2)C1)c1ccc(S(=O)(=O)N2CCCCC2)cc1` (stereo unspecified), the Potency was inconclusive: 126 µM [inhibitor, single point]. For `Cc1ccc(-c2ccc3nnc(CNC(=O)c4ccc(F)c(F)c4)n3n2)cc1`, the Potency was inconclusive: 89.1 µM [inhibitor, single point]. With `CNc1cncc(-c2ccc(OC)cc2)n1` the Potency was inconclusive: 126 µM [inhibitor, single point]. `Cc1cc(C)c(O)c(-c2n[nH]c3c2C(c2ccc(Cl)c(Cl)c2)N(CCCO)C3=O)c1` (stereo unspecified) was tested, and the Potency was inconclusive: 100 µM [inhibitor, single point]. For `NCC(=O)N1CCC(n2nccc2NC(=O)Nc2cccc(F)c2)CC1`, the “activity change, negative = inhibition” value was inactive: 5.1%. For `CCCC(=O)OCCNc1c(C(=O)OCC)cnc2c(Cl)c(Cl)ccc12`, the “activity change, negative = inhibition” value was inactive: 26.3%. For `COc1ccc(S(=O)(=O)Nc2ccccc2C(=O)NN2CCOCC2)cc1OC`, the Potency was inconclusive: 44.7 µM [inhibitor, partial curve, poor fit]. In the case of `C/C(=C\c1ccccc1)CN1CCN(c2ccccc2)CC1`, the Potency was inconclusive: 1 µM [inhibitor, full curve, poor fit]. In the case of `COc1ccc2[nH]c3c(c2c1)CCNC31CCN(C(=O)NC(C)(C)C)CC1`, the “activity change, negative = inhibition” value was inactive: -1.65%. With `N#CCc1nc2ccccc2c(=O)[nH]1` the Potency was inconclusive: 15.8 µM [inhibitor, partial curve, poor fit]. For `COc1cc(OC)cc(C(=O)Nc2ccc(N3CCOCC3)cc2N2CCOCC2)c1`, the “activity change, negative = inhibition” value was inactive: 53.1%. With `Fc1cccc(-c2oncc2-c2nnnn2-c2ccc(Cl)cc2)c1` the Potency was inconclusive: 44.7 µM [inhibitor, partial curve, poor fit]. For `CCOc1ccc(NC(=O)NCCc2noc(C)n2)cc1`, the Potency was inconclusive: 17.8 µM [inhibitor, full curve, poor fit]. With `CC(=O)N1N=C(c2ccc(Br)cc2)OC1(C)CC(=O)Nc1ccccc1` (stereo unspecified) the Potency was inconclusive: 89.1 µM [inhibitor, partial curve, poor fit]. In the case of `CCOC(=O)c1c(CCl)nc2ccccc2c1-c1ccccc1`, the Potency was inconclusive: 112 µM [inhibitor, single point]. For `Cc1ccc(NC(=O)N2CCC(CN3CCCCCC3)CC2)c(Cl)c1`, the Potency was inconclusive: 89.1 µM [inhibitor, partial curve, poor fit]. In the case of `CC(=O)c1cc(Br)ccc1OCc1ccc(Cl)c(Cl)c1`, the Potency was inconclusive: 63.1 µM [inhibitor, partial curve, poor fit]. In the case of `COc1ccc(-c2oc(NC(=O)CSc3nncn3C)c(C#N)c2-c2ccc(OC)cc2)cc1`, the “activity change, negative = inhibition” value was inactive: 33.5%. `CCOc1ccc(C(C)NC(=O)c2cccs2)cc1OCC` (stereo unspecified) was tested, and the activity change, negative = inhibition was inconclusive: -38.2% [inhibitor]. For `CN(C(=O)c1ccc2cccc(F)c2n1)C1CCCN(CCCc2ccccc2)C1` (stereo unspecified), the “activity change, negative = inhibition” value was inactive: 1.95%. With `COc1cc(CNc2ccc3[nH]c(=O)[nH]c3c2)ccc1OCc1ccc(C)cc1` the Potency was inconclusive: 56.2 µM [inhibitor, partial curve, poor fit]. `O=C(NC(Cc1c[nH]c2ccccc12)C(=O)O)c1ccc(Br)cc1` (stereo unspecified) was tested, and the Potency was inconclusive: 44.7 µM [inhibitor, partial curve, poor fit]. In the case of `Cc1cccc(C(=O)OCc2cc(=O)n3nc(C4CC4)sc3n2)c1`, the “activity change, negative = inhibition” value was inactive: 0.419%. For `Cc1ccc2nc(-c3ccc(CN4CCC5(CC4)CNc4ccccc45)cc3)c(-c3ccccc3)nc2c1`, the Potency was inconclusive: 63.1 µM [inhibitor, partial curve, poor fit]. For `CC(C)Sc1c(C(C)C)cnc2c1c(=O)n(C)c(=O)n2C`, the Potency was inconclusive: 44.7 µM [inhibitor, partial curve, poor fit]. `Cc1noc2ncnc(Sc3c(Cl)cccc3Cl)c12` was tested, and the “activity change, negative = inhibition” value was inactive: 26.6%. In the case of `CN(Cc1nc2ccccc2c(=O)[nH]1)C(=O)COc1ccccc1Cc1ccccc1`, the “activity change, negative = inhibition” value was inactive: 22.2%. In the case of `Fc1ccc(NCc2n[nH]c(=S)n2Cc2ccccc2)cc1`, the Potency was inconclusive: 79.4 µM [inhibitor, single point]. `O=C(C[C@H]1CC[C@H]2[C@@H](COC[C@@H](O)CN2C(=O)c2cnccn2)O1)NCc1ccc(Oc2ccccc2)cc1` was tested, and the Potency was inconclusive: 56.2 µM [inhibitor, partial curve, poor fit]. In the case of `COc1cccc(C(=O)NCC(c2ccco2)N2CCc3ccccc3C2)c1` (stereo unspecified), the Potency was inconclusive: 44.7 µM [inhibitor, partial curve, poor fit].
